# Values from PubChem BioAssay AID686938 (Drosophila RNAi Screening Center, 2013).
# Test: 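Knock-downs reducing store-operated calcium influx in Drosophila cells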 (primary screen)
# Cell system: Drosophila S2R+ cells
# Knock-down reagent: long dsRNA against Drosophila genes, about 0.25 µg dsRNA per well, roughly 10,000 cells
# Timing: 5 days of knock-down before the calcium assay
# Conditions: thapsigargin (SERCA pump blocker) to empty calcium stores; entry signal taken 4 min after adding it
# Read-out: 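Per-well fluo-4 fluorescence in two replicates, unnormalised, measured in resting cells and 4 min after store depletion by the SERCA blocker thapsigargin; ratio of the two present in few wells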
# Scale: calcium entry signal: higher = stronger calcium signal after store depletion; entry to resting ratio: higher = more calcium entry relative to resting level; resting calcium signal: higher = higher resting calcium signal
# Rule for the call: 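Hit if the duplicate-averaged plate z-score for entry over resting signal is under −3; wells with weak total dye signal (Fmax z < −2) or more than 5 off-targets removed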
# Meaning of the calls: active = strongly reduced calcium entry; inactive = no strong reduction
# The screen tested about 23,000 reagents; below is a random part of those that have a named target and a result. Of all reagents, 75 (0.33%) got an active call. 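Raw plate signals without normalisation; calls rest on plate z-scores that were not deposited; ratio present for only 364 wells.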 Names joined by + are all predicted targets of the reagent. Not stated in the record: the dose of the treatment.
"calcium entry signal, replicate 1 (fluorescence units)","calcium entry signal, replicate 2 (fluorescence units)",entry to resting ratio,"resting calcium signal, replicate 1 (fluorescence units)","resting calcium signal, replicate 2 (fluorescence units)",call,gene knocked down,DRSC id
3.92e7,4.11e7,,1.86e7,1.86e7,inactive,Gr21a (Gustatory receptor 21a),DRSC00366
3.42e7,4.62e7,,1.80e7,1.94e7,inactive,CG5937,DRSC18392
3.04e7,4.22e7,,1.70e7,1.81e7,inactive,CG9812,DRSC04566
3.16e7,8.47e7,,1.42e7,3.50e7,inactive,CG9896,DRSC03962
4.70e7,5.24e7,,2.40e7,2.44e7,inactive,CG9896,DRSC04594
2.31e7,3.79e7,,1.09e7,1.58e7,inactive,CG11131,DRSC11636
2.62e7,4.37e7,,1.35e7,1.78e7,inactive,CG11131,DRSC21736
3.40e7,3.54e7,,1.81e7,1.74e7,inactive,Hr51 (Hormone receptor 51),DRSC06627
2.83e7,4.46e7,,1.39e7,2.12e7,inactive,Hr51 (Hormone receptor 51),DRSC22829
3.82e7,5.00e7,,1.80e7,3.28e7,inactive,Naxd (NAD(P)HX dehydratase),DRSC09722
3.38e7,3.18e7,,1.66e7,1.47e7,inactive,Axud1 (AXIN1 up-regulated 1),DRSC00270
3.04e7,4.87e7,,1.69e7,1.89e7,inactive,CG13045,DRSC09926
3.55e7,3.42e7,,1.76e7,1.66e7,inactive,CG33255 (retired record) + CR42842 + hpRNA:CR32205 + 1 more,DRSC09617
3.76e7,1.71e7,,1.81e7,9.07e6,inactive,sage (salivary gland-expressed bHLH),DRSC14580
5.76e7,,,2.67e7,,inactive,Tpr2 (Tetratricopeptide repeat protein 2),DRSC03461
5.12e7,4.67e7,,2.37e7,1.96e7,inactive,Obp99c (Odorant-binding protein 99c),DRSC16262
3.45e7,4.39e7,,5.47e7,1.90e7,inactive,CG14302,DRSC14781
4.34e7,5.91e7,,2.12e7,2.64e7,inactive,shams,DRSC16590
3.12e7,4.96e7,,1.59e7,2.13e7,inactive,CG5056,DRSC02808
2.71e7,2.25e7,,1.47e7,1.25e7,inactive,alpha-Man-IIa (alpha-Mannosidase class II a),DRSC15393
3.39e7,4.35e7,,1.59e7,2.76e7,inactive,adp (adipose),DRSC06916
3.54e7,4.03e7,,1.69e7,1.73e7,inactive,Obp44a (Odorant-binding protein 44a),DRSC06838
5.67e7,4.79e7,,2.69e7,2.16e7,inactive,Tep4 (Thioester-containing protein 4),DRSC03453
3.25e7,3.91e7,,1.61e7,3.11e7,inactive,Zn72D (Zinc-finger protein at 72D),DRSC11318
6.01e7,5.37e7,,2.42e7,2.11e7,inactive,mago (mago nashi),DRSC04703

In a second layout: results already given.
{"gene knocked down":"sage (salivary gland-expressed bHLH)","DRSC id":"DRSC14580","calcium entry signal, replicate 1 (fluorescence units)":3.76e7,"calcium entry signal, replicate 2 (fluorescence units)":1.71e7,"resting calcium signal, replicate 1 (fluorescence units)":1.81e7,"resting calcium signal, replicate 2 (fluorescence units)":9.07e6,"call":"inactive"}
{"gene knocked down":"Tpr2 (Tetratricopeptide repeat protein 2)","DRSC id":"DRSC03461","calcium entry signal, replicate 1 (fluorescence units)":5.76e7,"resting calcium signal, replicate 1 (fluorescence units)":2.67e7,"call":"inactive"}
{"gene knocked down":"Obp99c (Odorant-binding protein 99c)","DRSC id":"DRSC16262","calcium entry signal, replicate 1 (fluorescence units)":5.12e7,"calcium entry signal, replicate 2 (fluorescence units)":4.67e7,"resting calcium signal, replicate 1 (fluorescence units)":2.37e7,"resting calcium signal, replicate 2 (fluorescence units)":1.96e7,"call":"inactive"}
{"gene knocked down":"CG14302","DRSC id":"DRSC14781","calcium entry signal, replicate 1 (fluorescence units)":3.45e7,"calcium entry signal, replicate 2 (fluorescence units)":4.39e7,"resting calcium signal, replicate 1 (fluorescence units)":5.47e7,"resting calcium signal, replicate 2 (fluorescence units)":1.90e7,"call":"inactive"}
{"gene knocked down":"shams","DRSC id":"DRSC16590","calcium entry signal, replicate 1 (fluorescence units)":4.34e7,"calcium entry signal, replicate 2 (fluorescence units)":5.91e7,"resting calcium signal, replicate 1 (fluorescence units)":2.12e7,"resting calcium signal, replicate 2 (fluorescence units)":2.64e7,"call":"inactive"}
{"gene knocked down":"CG5056","DRSC id":"DRSC02808","calcium entry signal, replicate 1 (fluorescence units)":3.12e7,"calcium entry signal, replicate 2 (fluorescence units)":4.96e7,"resting calcium signal, replicate 1 (fluorescence units)":1.59e7,"resting calcium signal, replicate 2 (fluorescence units)":2.13e7,"call":"inactive"}
{"gene knocked down":"alpha-Man-IIa (alpha-Mannosidase class II a)","DRSC id":"DRSC15393","calcium entry signal, replicate 1 (fluorescence units)":2.71e7,"calcium entry signal, replicate 2 (fluorescence units)":2.25e7,"resting calcium signal, replicate 1 (fluorescence units)":1.47e7,"resting calcium signal, replicate 2 (fluorescence units)":1.25e7,"call":"inactive"}
{"gene knocked down":"adp (adipose)","DRSC id":"DRSC06916","calcium entry signal, replicate 1 (fluorescence units)":3.39e7,"calcium entry signal, replicate 2 (fluorescence units)":4.35e7,"resting calcium signal, replicate 1 (fluorescence units)":1.59e7,"resting calcium signal, replicate 2 (fluorescence units)":2.76e7,"call":"inactive"}

More reagents follow.
"calcium entry signal, replicate 1 (fluorescence units)","calcium entry signal, replicate 2 (fluorescence units)",entry to resting ratio,"resting calcium signal, replicate 1 (fluorescence units)","resting calcium signal, replicate 2 (fluorescence units)",call,gene knocked down,DRSC id
3.80e7,4.07e7,,1.73e7,1.85e7,inactive,AspRS (Aspartyl-tRNA synthetase),DRSC05914
4.81e7,2.83e7,,2.11e7,1.44e7,inactive,Ku80,DRSC02699
4.45e7,3.24e7,,2.26e7,1.82e7,inactive,CG31278,DRSC16051
5.52e7,5.81e7,,2.80e7,2.56e7,inactive,hydra,DRSC20497
3.88e7,2.92e7,,1.82e7,1.45e7,inactive,beat-Va (beaten path Va),DRSC14192
4.02e7,5.03e7,,6.17e7,2.31e7,inactive,CG17271,DRSC15210
4.17e7,3.57e7,,2.73e7,2.03e7,inactive,CG17271,DRSC22629
6.23e7,2.29e7,,3.06e7,1.06e7,inactive,CG17271,DRSC22982
2.76e7,3.89e7,1.9,1.47e7,1.64e7,inactive,CG32813,DRSC17948
3.59e7,5.54e7,,1.89e7,2.15e7,inactive,CG13461,DRSC10008
4.77e7,,,2.01e7,,inactive,Cks30A (Cyclin-dependent kinase subunit 30A),DRSC03292
3.08e7,3.64e7,,1.64e7,1.70e7,inactive,CG30062,DRSC21737
2.95e7,2.83e7,,1.38e7,1.45e7,inactive,Sirt6 (Sirtuin 6),DRSC16010
4.64e7,,,2.02e7,,inactive,CG4691,DRSC01950
2.85e7,4.09e7,,1.50e7,1.91e7,inactive,CG6709 + Hez,DRSC10165
3.44e7,4.32e7,,1.69e7,1.82e7,inactive,CG6709 + Hez,DRSC10698
4.74e7,4.10e7,,2.22e7,2.00e7,inactive,CG14042 + SP555,DRSC02367
3.93e7,3.64e7,,1.95e7,1.74e7,inactive,CG14042 + SP555,DRSC03428
2.26e7,1.74e7,,1.30e7,9.40e6,inactive,CG11151,DRSC19387
3.05e7,2.44e7,,1.79e7,1.38e7,inactive,CG17738,DRSC15257
1.70e7,2.82e7,,8.30e6,1.25e7,inactive,Egfrap (EGFR adaptor protein),DRSC09963
1.81e7,3.10e7,,8.97e6,1.42e7,inactive,Egfrap (EGFR adaptor protein),DRSC09964
4.69e7,3.05e7,,2.24e7,1.54e7,inactive,side-III (sidestep III),DRSC12155
4.63e7,3.51e7,,2.48e7,1.78e7,inactive,side-III (sidestep III),DRSC12263
4.54e7,3.08e7,,2.18e7,1.52e7,inactive,side-III (sidestep III),DRSC12264
3.47e7,,,1.69e7,,inactive,CG9861,DRSC04576
4.11e7,,,1.93e7,,inactive,GlcAT-S (Glucuronyltransferase S),DRSC02731
3.17e7,5.78e7,,1.43e7,2.25e7,inactive,CG34007,DRSC01790
2.78e7,3.90e7,,1.41e7,5.05e7,inactive,IFT54 (Intraflagellar transport 54),DRSC15469
4.56e7,3.21e7,2,2.32e7,1.59e7,inactive,Zip102B (Zinc/iron regulated transporter-related protein 102B),DRSC17155
2.65e7,3.34e7,,1.48e7,1.51e7,inactive,CG7377,DRSC10830
3.19e7,5.26e7,,1.60e7,2.40e7,inactive,Poxm (Pox meso),DRSC16793
2.88e7,4.48e7,,1.39e7,1.90e7,inactive,Poxm (Pox meso),DRSC22839
